Results of single-concentration screens

Measurements from “University of Dundee, Small-Polar-MMV Screening Library” (2021), ChEMBL document CHEMBL3988442.

Each number is a percent effect as filed.
The record does not define 0% and 100%; most values in the screen are far below 50% and negative numbers occur (in some assays of this library far below -100).
The compounds are a random part of those screened.
Two or more numbers in one place are separate tests of the same structure; such repeats can differ widely.

A: 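Whole-cell growth test on Mycobacterium tuberculosis, read after 4 days in a medium based on cholesterol and the lipid DPPC; the read-out is not stated. Compounds at 50 µM. Higher reads as more growth inhibition (inferred: compounds with an IC50 in retests scored well above the rest). About 69,000 compounds were tested under these conditions; 0.54% (about 370) showed 50% or more at least once.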
B: 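Growth of Mycobacterium tuberculosis over 3 days (7H9 medium with glucose and tyloxapol); the read-out is not stated. Tested at 50 µM. The record gives no direction; compounds that gave an IC50 in retests scored well above the rest, so higher reads as more growth inhibition. Size under these conditions: about 69,000 compounds, about 760 of them at 50% or above in at least one test.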

[H][C@@]12CCN(S(C)(=O)=O)C[C@@]1([H])O[C@H](c1ccnc(C)n1)C2 gave A: 5.885%; B: 13.1%. For FC(F)(F)CCc1ccnc(NC2CCOC2)n1 (stereo not given) the result was A: -9.997%; B: -8.611%. Result for Cc1nc(C2CCCN2CCCn2c(=O)oc3ccccc32)no1 (stereo not given) was A: -33.41%; B: -32.89%. Cc1cnc(N2CC3(CCN(C(=O)c4cccnc4)C3)C2)nc1.O=C(O)C(F)(F)F gave A: -5.388%; B: -2.238% & -15.83%. For CN1C(=O)C2(CCN(S(=O)(=O)C3CC3)CC2)c2ccccc21 the result was A: 1.849%; B: 1.767% & -3.925%.

With [H][C@@]12C[C@H](C(=O)Nc3cccnc3)[C@@]([H])(CN(C(=O)NC3CCCC3)C1)O2 the screen gave A: -17.98%; B: -2.203%. For O=C(C1CCCC1)N1CCN(Cc2nc(-c3ccco3)no2)CC1 the result was A: -4.116%; B: 3.856%. C[C@@H](O)[C@H](NC(=O)c1csc2nc(-c3ccccc3F)cn12)C(N)=O gave A: -29.89% & -5.226%; B: -8.062%. With Cn1cc(CN2CCCC(O)C2)c(-c2ccccc2F)n1 (stereo not given) the screen gave A: 3.054%; B: -5.522%. For Fc1ccccc1C1(CNC2CCOC3(CCOCC3)C2)CCCC1 (stereo not given) the result was A: 13.15%; B: -0.9535% & 33.01%.

CCOc1cc(/C=C/c2ncc(C(=O)O)s2)ccc1O gave A: -32.24%; B: -27.96%. Result for Cc1nnc(NC(=O)C2CSCN2C(=O)C2CCCC2)s1 (stereo not given) was A: -8.731%; B: 15.68%. For [H][C@]12CCN(C(=O)c3ccc4c(c3)CCCC4)CC[C@]1([H])OCC(=O)N2 the result was A: -6.958% & 5.795%; B: 10.78%. [H][C@]12CC[C@]([H])(CC(=O)NC1)N2C1CSCCSC1 gave A: 32.7%; B: 15.04%. Result for CC(C)c1noc(-c2ccnc(-n3cnc(C(=O)O)c3)c2)n1 was A: -19.83%; B: -6.312% & -18.93%.

For Oc1cccc(CNCc2ccc(-n3cncn3)nc2)c1 the result was A: -14.43%; B: -32.22%. Result for NS(=O)(=O)CC1CCCN(C(=O)CCCC2CCCC2)C1 (stereo not given) was A: 1.292%; B: 20.38%. Cn1ccnc1CN1CCC2(CC1)CC(Oc1cccnc1)C2.O=C(O)C(F)(F)F.O=C(O)C(F)(F)F gave A: 19.67%; B: 36.98%. CC(C)[C@H](NC(=O)NC1CCS(=O)(=O)C1)C(=O)NCc1ccc(Cl)cc1 (stereo not given in full) gave A: 6.512%; B: 4.319%. Result for CCC(C)N(Cc1cnc(NC(C)C)nc1)Cc1ccsc1 (stereo not given) was A: -6.424%; B: 5.918%.

Result for CCN1CCC(CC(=O)N2CCn3cccc3C2c2cccnc2)CC1 (stereo not given) was A: -11.08%; B: 20.81%. [H][C@@]12CCC(=O)N(CCN)[C@]1([H])CCN(Cc1ccc3occc3c1)C2 gave A: 5.235%; B: 27.53%. Cn1cccc1C(O)CNC(=O)c1ccc2nsnc2c1 (stereo not given) gave A: -16.38%; B: -6.83%. For CN(Cc1ccc2c(c1)OCO2)C(=O)c1ccc(C2CCCO2)s1 (stereo not given) the result was A: 11.16%; B: 31.21%. Cc1nc(C)c(C(=O)N2Cc3cc(F)ccc3CC2C)o1 (stereo not given) read A: 18.29%; B: 32.8%.

Result for CCOc1ccc(CNC(C)c2ccc3[nH]c(=O)[nH]c3c2)cc1 (stereo not given) was A: 9.36%; B: 4.502% & 25.24%. Cc1cc(NC(=O)N2CCN(C)CC2C)n(CCC#N)n1 (stereo not given) gave A: 12.48%; B: -8.389% & -5.574%. Result for O=C1CCCc2occ(C(=O)N3CCCC4(CCNC4)C3)c21 (stereo not given) was A: 5.513%; B: 12.78%. COc1cc(Cl)ccc1CNC(=O)N1CCC(n2cncn2)CC1 gave A: 5.458%; B: 45.03%. CN1CCN(CC2CC2)C(=O)c2cnc(N3CCCC3)nc21 gave A: -24.29%; B: -22.38%.

With CN(C)CC1(O)CCN(C(=O)Cc2ccc(Cl)c(Cl)c2)C1 (stereo not given) the screen gave A: -0.6735% & -28.37%; B: 29.21%. O=C(O)C(F)(F)F.[H][C@@]12CCCO[C@]1([H])[C@H](OCc1cccnc1)CN2S(=O)(=O)N(C)C gave A: -20.83%; B: -14.27%. For Cc1oc(-c2ccco2)nc1CC(=O)N1CCN(C2CCC2)CC1 the result was A: -2.01%; B: -12.57%. COc1ccc(-c2noc(C(N)CCSC)n2)cc1OC (stereo not given) read A: -7.486%; B: -3.577%. CCS(=O)(=O)N1CCC(OC)c2ccccc2N(CC(=O)NC)C(=O)C1 (stereo not given) read A: -2.877%; B: -3.597%.

For CCn1ncc2c1C(COC)CN(Cc1cnn(C)c1)C2 (stereo not given) the result was A: -8.25%; B: 5.227%.

Once more, the final 4:

* Cc1oc(-c2ccco2)nc1CC(=O)N1CCN(C2CCC2)CC1 : A: -2.01%; B: -12.57%
* COc1ccc(-c2noc(C(N)CCSC)n2)cc1OC (stereo not given) : A: -7.486%; B: -3.577%
* CCS(=O)(=O)N1CCC(OC)c2ccccc2N(CC(=O)NC)C(=O)C1 (stereo not given) : A: -2.877%; B: -3.597%
* CCn1ncc2c1C(COC)CN(Cc1cnn(C)c1)C2 (stereo not given) : A: -8.25%; B: 5.227%